From patent US10390536B2, “Methods, compounds and compositions for repelling insects and/or arachnids” (National Center for Scientific Research “Demokritos”, priority 2013, dated 2019)

Tested on: sand fly Lutzomyia longipalpis
Experiment: warm body repellence assay with sand flies
Format: in vivo
Procedure: To test the effects of repellent compounds or compositions disclosed herein on other blood-feeding arthropods, a warm body repellence assay (Krober et. al. (2010). An In Vitro Assay for Testing Mosquito Repellents Employing a Warm Body and Carbon Dioxide as a Behavioral Activator. Journal of the American Mosquito Control Association 26(4): 381-386] was conducted using the sand fly Lutzomyia longipalpis (Diptera: Psychodidae), the principal vector of Leishmania (or leismaniasis) in the Americas.
[…] Fifty L. longipalpis sandflies (male:female ratio 1:1) of 3-7 days old were tested during the scotophase under conditions described for A. gambiae in Example 6. The test cages were lined with filter paper. Reduction in the number of landings by L. longipalpis sand fly females on a warm body treated with different test products compared to the control with solvent (ethanol p.a.) alone was used to evaluate repellence. Tests were conducted in complete darkness using IR LEDs to illuminate the warm body. Landings counted during 2 minutes were normalized by experimental day, cage, and number of females by a mixed linear model before testing for differences.

Compound: CCCCOC(=O)C=Cc1ccccc1 [butyl-cinnamate, butyl 3-phenylprop-2-enoate]
- Difference to DEET at 20 nmol/cm^2 (test product at 20 nmol/cm^2): *** (P ≤ 0.001)
- Difference to DEET at 20 nmol/cm^2 (test product at 200 nmol/cm^2): * (P ≤ 0.1)
